Structures can show the parent of a compound that is named as a salt. At least one compound was matched to its structure with a doubt left.
What was measured:
[1] = pKa and ionisation equilibrium at pH 7.4; type: physicochemical; conditions: ionised:unionised
NRF2/ARE = NRF2/ARE responsive luciferase reporter assay in HEK293 cells; type: cell-based; conditions: 16 h
Method: NRF2/ARE responsive luciferase reporter HEK293 cells (Signosis, Santa Clara, USA) were seeded at 1×10^5 cells/well in 48-well plates (Corning, Tewksbury, USA) in supplemented Dulbecco's Modified Eagle Medium (DMEM) containing 4.5 g/L glucose (HyClone, Pittsburgh, USA) (10% fetal bovine serum (FBS) (ThermoFisher Scientific, Waltham, USA) and 1% penicillin/streptomycin (Gibco, Waltham, USA)) and cultured overnight at 37° C., 5% CO2, in a humidified environment. The next morning, the media was replaced with supplemented DMEM (1% FBS (ThermoFisher Scientific) and 1% penicillin/streptomycin (Gibco)). […]
After 16 h of incubation with examples of compounds described in the invention and ROS/RNS, cells were washed gently with 500 μL PBS (Sigma-Aldrich) and then incubated in 40 μL passive lysis buffer (Promega, Madison, USA) at room temperature. […] Luminesence was immediately read on a Synergy HTX multi-mode microplate reader (BioTek, Winooski, USA).
Differences between in vitro concentration-response relationships were determined by comparing the slopes of fitted functions for shared parameters. […] Mechanical allodynia was analyzed as the interpolated 50% thresholds (absolute threshold). […] Differences between treatment groups for behavior were determined using repeated measures two-way ANOVA, followed by Tukey's or Sidaks post hoc tests. […] Results are expressed as mean±standard deviation (SD). […]

COC(=O)/C=C/C(=O)O [MMF, monomethyl fumarate, reference compound]
equilibrium in favour of being ionised [1]: 5,888:1
luciferase activity (NRF2) (NRF2/ARE; 0-100 μM): increased luciferase activity in a concentration dependent manner
NRF2 activity in the presence of H2O2 or ONOO− compared to media control (NRF2/ARE; 10 μM H2O2 or 10 μM ONOO−, 0-100 μM compound): not influenced by H2O2 or ONOO^−
